These results are taken from PMC3794858, “NECAP 1 Regulates AP-2 Interactions to Control Vesicle Size, Number, and Cargo During Clathrin-Mediated Endocytosis” (PLoS Biology, 2013).

By UniProt entry, the sequences of proteins in these tests, tags left out. Residues count along the entry.
UniProt P63010, residues 1-668: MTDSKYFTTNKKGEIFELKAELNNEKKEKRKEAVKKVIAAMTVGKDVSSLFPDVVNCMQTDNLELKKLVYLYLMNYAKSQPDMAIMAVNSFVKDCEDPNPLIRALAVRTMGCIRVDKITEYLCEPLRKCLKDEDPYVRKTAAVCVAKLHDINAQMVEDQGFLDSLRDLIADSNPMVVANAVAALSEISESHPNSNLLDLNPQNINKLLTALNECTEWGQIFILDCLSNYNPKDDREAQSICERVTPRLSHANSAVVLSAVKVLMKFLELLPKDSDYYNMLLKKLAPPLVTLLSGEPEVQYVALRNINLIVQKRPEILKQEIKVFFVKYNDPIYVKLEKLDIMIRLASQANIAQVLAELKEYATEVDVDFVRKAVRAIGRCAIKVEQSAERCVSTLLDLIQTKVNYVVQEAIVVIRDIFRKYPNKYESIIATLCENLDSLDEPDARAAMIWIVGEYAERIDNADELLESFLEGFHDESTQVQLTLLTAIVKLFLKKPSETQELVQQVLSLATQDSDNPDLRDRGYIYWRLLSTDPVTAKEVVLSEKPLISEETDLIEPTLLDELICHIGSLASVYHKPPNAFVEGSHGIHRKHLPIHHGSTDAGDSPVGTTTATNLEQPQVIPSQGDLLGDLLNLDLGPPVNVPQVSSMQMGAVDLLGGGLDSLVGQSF
UniProt Q62910: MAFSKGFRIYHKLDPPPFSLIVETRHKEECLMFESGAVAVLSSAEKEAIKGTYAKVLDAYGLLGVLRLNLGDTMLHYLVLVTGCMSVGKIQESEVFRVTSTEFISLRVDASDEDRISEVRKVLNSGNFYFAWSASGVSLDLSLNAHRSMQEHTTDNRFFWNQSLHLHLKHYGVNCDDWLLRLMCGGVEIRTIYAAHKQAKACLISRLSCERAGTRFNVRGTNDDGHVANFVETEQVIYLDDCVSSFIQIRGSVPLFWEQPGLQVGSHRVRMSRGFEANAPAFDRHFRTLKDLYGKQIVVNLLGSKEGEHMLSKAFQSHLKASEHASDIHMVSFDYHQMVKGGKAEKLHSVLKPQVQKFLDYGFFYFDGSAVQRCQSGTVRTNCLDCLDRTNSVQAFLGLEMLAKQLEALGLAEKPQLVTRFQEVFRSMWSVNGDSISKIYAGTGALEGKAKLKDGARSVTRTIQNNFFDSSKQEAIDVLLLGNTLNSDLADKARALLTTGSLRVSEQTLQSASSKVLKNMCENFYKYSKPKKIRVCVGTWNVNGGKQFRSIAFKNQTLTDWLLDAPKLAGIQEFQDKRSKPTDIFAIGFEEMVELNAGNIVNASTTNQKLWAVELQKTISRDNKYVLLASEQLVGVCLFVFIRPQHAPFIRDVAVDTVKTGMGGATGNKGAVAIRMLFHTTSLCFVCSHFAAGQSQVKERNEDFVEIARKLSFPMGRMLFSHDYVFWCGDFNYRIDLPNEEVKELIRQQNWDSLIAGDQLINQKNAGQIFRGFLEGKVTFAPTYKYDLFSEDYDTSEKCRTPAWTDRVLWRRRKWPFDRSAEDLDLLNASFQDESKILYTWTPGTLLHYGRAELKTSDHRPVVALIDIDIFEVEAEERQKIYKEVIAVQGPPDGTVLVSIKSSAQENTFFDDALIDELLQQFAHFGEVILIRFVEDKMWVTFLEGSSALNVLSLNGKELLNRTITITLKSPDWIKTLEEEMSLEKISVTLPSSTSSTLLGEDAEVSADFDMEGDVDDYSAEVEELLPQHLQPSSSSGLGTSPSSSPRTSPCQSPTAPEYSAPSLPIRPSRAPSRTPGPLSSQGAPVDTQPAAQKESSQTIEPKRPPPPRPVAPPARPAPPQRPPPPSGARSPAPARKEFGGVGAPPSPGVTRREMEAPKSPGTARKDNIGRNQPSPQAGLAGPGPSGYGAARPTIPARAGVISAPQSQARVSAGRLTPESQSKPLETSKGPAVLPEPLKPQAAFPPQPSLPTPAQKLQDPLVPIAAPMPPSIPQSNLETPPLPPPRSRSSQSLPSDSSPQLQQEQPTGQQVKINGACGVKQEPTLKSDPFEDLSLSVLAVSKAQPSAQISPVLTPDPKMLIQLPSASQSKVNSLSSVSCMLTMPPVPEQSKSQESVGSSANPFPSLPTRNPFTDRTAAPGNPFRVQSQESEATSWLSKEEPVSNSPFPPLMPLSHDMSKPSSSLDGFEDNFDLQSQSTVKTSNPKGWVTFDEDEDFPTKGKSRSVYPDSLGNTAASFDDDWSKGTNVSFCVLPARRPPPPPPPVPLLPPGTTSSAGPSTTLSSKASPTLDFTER
UniProt P49951, residues 1-579: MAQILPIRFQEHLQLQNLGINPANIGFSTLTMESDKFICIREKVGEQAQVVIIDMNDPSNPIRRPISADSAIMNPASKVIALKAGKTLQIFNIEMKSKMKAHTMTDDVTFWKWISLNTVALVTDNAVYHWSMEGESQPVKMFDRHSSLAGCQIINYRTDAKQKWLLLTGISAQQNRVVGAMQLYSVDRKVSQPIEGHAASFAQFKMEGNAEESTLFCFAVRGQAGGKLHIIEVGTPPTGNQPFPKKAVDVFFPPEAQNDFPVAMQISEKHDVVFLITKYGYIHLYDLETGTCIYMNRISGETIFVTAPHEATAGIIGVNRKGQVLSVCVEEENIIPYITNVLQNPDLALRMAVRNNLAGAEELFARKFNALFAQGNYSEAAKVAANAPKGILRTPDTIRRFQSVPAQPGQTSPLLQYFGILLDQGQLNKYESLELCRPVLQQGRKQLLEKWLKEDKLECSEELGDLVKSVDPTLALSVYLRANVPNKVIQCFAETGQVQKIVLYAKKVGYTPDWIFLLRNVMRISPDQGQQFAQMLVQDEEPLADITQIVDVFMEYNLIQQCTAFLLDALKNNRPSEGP

In test [1] the target is T1, GST–PHear (NECAP 1 PHear domain, aa 1–133, fused to GST) (mouse) (UniProt Q9CR95).
T1 sequence: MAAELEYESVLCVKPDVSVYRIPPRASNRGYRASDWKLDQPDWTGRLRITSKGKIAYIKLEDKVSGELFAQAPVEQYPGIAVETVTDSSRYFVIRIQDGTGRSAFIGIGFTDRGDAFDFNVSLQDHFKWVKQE
As to the kind of experiment: pull-down; GST fusion proteins precoupled to glutathione-Sepharose, rat brain extract, 1 h at 4°C, 10 mM HEPES pH 7.4, 1% Triton X-100, 50 mM NaCl; Western blot; only the target purified.

Test [2] addresses T2, β2-linker peptide (Ac-…).
T2 sequence (peptide, N-terminal acetyl (Ac-)): SQGDLLGDLLNLDLPPVN
Nature of the test: NMR titration; competition: 15N-labeled PHear with unlabeled β2-linker peptide (1:4) titrated with unlabeled clathrin terminal domain (up to 1:4:2), 30°C; both purified.

The target in test [3] is T3, GST–PHear R95A (mouse) (UniProt Q9CR95).
T3 sequence: T1 sequence with R95A
Nature of the test: pull-down; GST fusion proteins precoupled to glutathione-Sepharose, rat brain extract, 1 h at 4°C, 10 mM HEPES pH 7.4, 1% Triton X-100, 50 mM NaCl; Western blot; only the target purified. Background: Immunoblotting shows a protein as a band on a membrane.

The target in test [4] is T1, GST–PHear (NECAP 1 PHear domain, aa 1–133, fused to GST) (mouse). Described as above. The source holds these as a separate data set.
Test [5] concerns the target Flag-tagged β2-adaptin trunk+linker (aa 1–668) (UniProt P63010). As to the kind of experiment: far-Western, overlay or dot blot; Flag-tagged α- and β2-adaptin variants immunoprecipitated from HEK-293-T lysates, resolved by SDS-PAGE, overlaid with purified GST fusion proteins; both purified.
Test [6] concerns the target T3, GST–PHear R95A (mouse). Nature of the test: pull-down; GST fusion proteins precoupled to glutathione-Sepharose, lysates of transfected HEK-293-T cells, 1 h at 4°C, 10 mM HEPES pH 7.4, 1% Triton X-100, 50 mM NaCl; Western blot; only the target purified.
For test [7], the target named is T1, GST–PHear (NECAP 1 PHear domain, aa 1–133, fused to GST) (mouse). The test is described as above.

Substitutions are numbered along the chain they refer to. Results are given in words; binding and its absence hold for the method and conditions named. For some of these results: Binding seen in cells or lysates may run through a third protein. Some binding calls cover weakened binding; strength is not graded here. For some of these results: Tags and fused reporters may be left off the sequences shown.

Regarding “synaptojanin 170 (endogenous, brain lysate) (from UniProt Q62910 1-1574)”, the binding result in test [1] is “binds”.

Regarding “unlabeled clathrin terminal domain (aa 1–579) (from UniProt P49951 1-579) (domain or fragment)”, in test [2], the binding result was “binds”.

B1: amphiphysin II (endogenous, brain lysate) (protein, UniProt O08839 1-588)
chain: MAEMGSKGVTAGKIASNVQKKLTRAQEKVLQKLGKADETKDEQFEQCVQNFNKQLTEGTRLQKDLRTYLASVKAMHEASKKLSECLQEVYEPEWPGRDEANKIAENNDLLWMDYHQKLVDQALLTMDTYLGQFPDIKSRIAKRGRKLVDYDSARHHYESLQTAKKKDEAKIAKPVSLLEKAAPQWCQGKLQAHLVAQTNLLRNQAEEELIKAQKVFEEMNVDLQEELPSLWNSRVGFYVNTFQSIAGLEENFHKEMSKLNQNLNDVLVSLEKQHGSNTFTVKAQPSDSAPEKGNKSPSPPPDGSPAATPEIRVNHEPEPASGASPGATIPKSPSQLRKGPPVPPPPKHTPSKEMKQEQILSLFDDAFVPEISVTTPSQFEAPGPFSEQASLLDLDFEPLPPVASPVKAPTPSGQSIPWDLWEPTESQAGVLPSGEPSSAEGSFAVAWPSQTAEPGPAQPAEASEVVGGTQEPGETAASEATSSSLPAVVVETFSATVNGAVEGSTTTGRLDLPPGFMFKVQAQHDYTATDTDELQLKAGDVVLVIPFQNPEEQDEGWLMGVKESDWNQHKELEKCRGVFPENFTERVQ
With B1, the binding entry in test [3] and in test [4] was “binds” each time.

B2: GST–PHear (NECAP 1 PHear domain, aa 1–133, fused to GST) (domain or fragment, UniProt Q9CR95 1-133)
chain: T1 sequence
As for B2, the binding entry in test [5] is recorded as “binds”.

B3: mCherry-tagged FCHo2 (protein, UniProt Q3UQN2 1-809)
chain: MVMAHFVENFWGEKNNGFDVLYHNMKHGQISTKELADFVRERATIEEAYSRSMTKLAKSASNYSQLGTFAPMWDVFKTSTEKLANCHLDLVRKLQELIKEVQKYGEEQVKSHKKTKEEVAGTLEAVQAIQNITQALQKSKENYTAKCVEQERLKKEGATQREIEKAAVKSKKATDTYKLYVEKYALTKADFEQKMTETAQKFQDIEETHLIHIKEIIGSLSNAVKEIHLQIGQVHEEFINNMANTTIESLIQKFAESKGTGKERPGLIEFEECDPASAVEGIKPRKRKTFALPGIIKKEKDAESVECPDADSLNIPDVDEEGFSIKPEANQNDTKENHFYSSSDSDSEDEEPKRYRIEIKPAHPNNLHHTMASLDELKVSIGNITLSPAVSRHSPVQMNRNSSNEELTKSKPSSLPTEKGTNDLLAWDPLFGSSLESSSAPLTSSSSARPTTPLSLGTLVPPPRPASRPKLASGKLSGINEIPRPFSPPVTSNTSPPPTAPLARAESSSSISSSASLSAANTPTVGVSRGPSPVSLGNQDTLPVAIALTESVNAYFKGADPTKCIVKITGDVTISFPSGIIKVFTSNPSPAVLCFRVKNISRLEQILPNSQLVFSDPSQCDSNTKDFWMNMQAVTIYLKKLSEQNPAASYYNVDVLKYQVSSNGIQSTPLNLATYWKCSASTTDLRVDYKYNPEAMVAPSVLSNIQVVVPVDGGVTNMQSLPPAIWNAEQMKAFWKLSGISEKSDSGGSGSLRAKFDLSEGPSKPTTLAVQFLSEGNTLSGVDIELVGTGYRLSLVKKRFATGRYLADC
Regarding B3, the binding result in test [6] and in test [7] was “binds” in each case.

B4: GST–PHear–Ex (NECAP 1 aa 1–178 fused to GST) (domain or fragment, UniProt Q9CR95 1-178)
chain: MAAELEYESVLCVKPDVSVYRIPPRASNRGYRASDWKLDQPDWTGRLRITSKGKIAYIKLEDKVSGELFAQAPVEQYPGIAVETVTDSSRYFVIRIQDGTGRSAFIGIGFTDRGDAFDFNVSLQDHFKWVKQETEISKESQEMDNRPKLDLGFKEGQTIKLSIGNITAKKGGASKPRA
For B4, the binding result in test [5] is recorded as “binds”.

B5: mCherry-tagged FCHo1 (protein, UniProt Q8K285 1-873)
chain: MSYFGEHFWGDKNHGFEVLYHCVKQGPVATKELADFIRERANIEETYSKAMAKLSKLASNGTPMGTFAPLWEVFRVSSDKLALCHLELTRKLHDLLKDVLRYGEEQLKTHKKCKEEVLGTVDAVQMLSGVGQLLPKSRENYLSRCMDLERLRRENTSQKEMDKAETKSKKAADSLRRSVDKYNSARADFEIKMLDSALRFQAMEEAHLQHMKALLGSYAHSVEDTHVQIGQVHEEFKQNVENVTVDMLLRKFAESKGTGREKPGPLDFDAYSSAALQEAMKRLRGAKAFRLPGLSRREPRASVDFLESDSGVPPEVDDEGFTVRPDISQNNGAEPPRFSSSDSDFDDEEPRKFYVHIKPAPTRAVACSSEAAAAQLRATAGSLILPPGPGGTMKRHSSRDTSGKPQRPRSAPRTGSCAEKPLASEEPLSKSLFGPPLESAFDHDDFTGSSSLGFTSSPSPFSSSSPENVEDSGLDSPSHAAPGPSPESWVPRPGTPQSPPTCRAQHPEPRGLMPRAPSPGPWGPEGGADSLTPADPTREGLAATLRRPRSRKVSCPLTRSNGDLCRSLSPSPLGSSAPTIPPDRPSFSTQMGHGISRGPSPVVLGSQDALPVATAFTEYVHAYFRGHSPSCLARVTGELTMTFPAGIVRVFSGTPPPPVLSFRLVNTAPVEHFQPNADLIFSDPSQSDPETKDFWLNMAALTEALQHQAEQNPTASYYNLVLLRYQFSRPGPESVPLQMSAHWQCGPTLTRVSVEYSYRAGATAVSTPLTNVQILLPVGEPVTSVRLQPAATWNTEEKRFTWKLPDVCEAGGSGHLSASWQPQSGPSTPSPVAAQFTSEGATLSGLDLELLGGGYRMSLVKRRFATGMYLVSC
For B5, the binding entry in test [6] and in test [7] was “binds” each time.

B6: Flag-tagged FCHo1 full-length (aa1–837) (protein, UniProt Q8K285 1-873)
chain: B5 chain
For the molecule B6, the binding result in test [7] was “binds”.

B7: amphiphysin I (endogenous, brain lysate) (protein, UniProt O08838 1-683)
chain: MADIKTGIFAKNVQKRLNRAQEKVLQKLGKADETKDEQFEEYVQNFKRQEAEGTRLQRELRGYLAAIKGMQEASMKLTESLHEVYEPDWYGREDVKMVGEKCDVLWEDFHQKLVDGSLLTLDTYLGQFPDIKNRIAKRSRKLVDYDSARHHLEALQSSKRKDESRISKAEEEFQKAQKVFEEFNVDLQEELPSLWSRRVGFYVNTFKNVSSLEAKFHKEIAVLCHKLYEVMTKLGDQHADKAFSIQGAPSDSGPLRIAKTPSPPEEASPLPSPTASPNHTLAPASPAPVRPRSPSQTRKGPPVPPLPKVTPTKELQQENIINFFEDNFVPEINVTTPSQNEVLEVKKEETLLDLDFDPFKPDVTPAGSAAATHSPMSQTLPWDLWTTSTDLVQPASGGSFNDFTQPQDTSLFTMQTDQNMAETEQALPTEPQAEEPPTTAAAPTAGLDLGLEMEEPKEEAAIPPGTDAGETVGTEGSTGEEAEAEKAALPAGEGESPEGAKIDVESTELASSESPQAAELEAGAPQEKVIPSVVIEPASNHEGEEHQETTTGTETREATEDVAPQGPAGEKQELATEPTPLDSQAATPAPAGAVDASLSAGDAAQELPPGFLYKVETLHDFEAANSDELTLQRGDVVLVVPSDSEADQDAGWLVGVKESDWLQYRDLATYKGLFPENFTRHLE
Regarding B7, the binding entry in test [3] and in test [4] was “binds” in each case.
